{
  "sequences": {"note": "By UniProt entry, the sequences of proteins in these tests, tags left out.", "UniProt P63081": "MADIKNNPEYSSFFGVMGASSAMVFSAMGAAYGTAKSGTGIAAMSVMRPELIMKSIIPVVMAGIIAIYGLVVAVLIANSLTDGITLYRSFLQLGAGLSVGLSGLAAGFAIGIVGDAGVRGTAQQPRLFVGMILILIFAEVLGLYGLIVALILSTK"},
  "source": "paper PMC10001230",
  "about": "“A Role for the V0 Sector of the V-ATPase in Neuroexocytosis: Exogenous V0d Blocks Complexin and SNARE Interactions with V0c” (Cells, 2023)",
  "binders": {"B1": {"name": "complexin 2 (native, rat brain extract) (protein, UniProt P84087 1-134)", "chain": "MDFVMKQALGGATKDMGKMLGGEEEKDPDAQKKEEERQEALRQQEEERKAKHARMEAEREKVRQQIRDKYGLKKKEEKEAEEKAALEQPCEGSLTRPKKAIPAGCGDEEEEEEESILDTVLKYLPGPLQDMFKK"}},
  "biological_target": "His6-T7-HSV tagged full-length V0c-subunit (rat) (UniProt P63081)",
  "experiment": "SPR; HSV-V0c captured on anti-HSV antibodies (CMDP chip); solubilized rat brain LP1 proteins diluted 5-fold in 25 mM Tris-HCl pH 7.4, 150 mM NaCl, 0.2% CHAPS injected; bound proteins detected by injecting monoclonal antibodies; control flow cell subtracted; only the target purified",
  "note": "No constants are given. Whether binding was seen depends on the method and setting. Some binding calls cover weakened binding; strength is not graded here.",
  "data": [
    {"binder": "B1", "values": [
      {"measurement": "binding", "value": "binds"}
    ]}
  ]
}
